Assay results reported in patent US9902681B2, “N-3 immunoresolvents: structures and actions” (THE BRIGHAM AND WOMEN'S HOSPITAL, INC., priority 2013, dated 2018).
Some entries share one result that the patent states for a list of compounds. At least one compound was matched to its structure with a doubt left.

Tested on: neutrophil-platelet aggregates
Test: Whole blood neutrophil-platelet aggregates after ischemia reperfusion (flow cytometry)
Format: in vivo, mouse
Conditions: 2 h post reperfusion, vs vehicle

## CC/C=C\C[C@H](O)/C=C/C=C\C=C\C=C\[C@@H](O)[C@@H](O)C/C=C\CCC(=O)O [RvD1, 7S,8R,17S-trihydroxy-4Z,9E,11E,13Z,15E,19Z-docosahexaenoic acid]
  reduction in the levels of platelet-leukocyte aggregates: 55-65%
